In patent US20070078175A1, “Administration of novel phenylfurylmethylthiazolidine-2,4-dione and phenylthienylmethylthiazolidine-2,4-dione compounds for stimulating or inducing the growth of keratinous fibers and/or slowing loss thereof” (L'OREAL, priority 2005, published 2007):

Assay: Comparative hair colouring test on bleached locks of hair
Details: 100 mg product in water/ethanol/aqueous ammonia (salt form), 40° C., 1 hour

SMILES	coloring of locks of hair
O=C1N=C(O)C(Cc2ccc(-c3ccc(C(=O)O)cc3)o2)S1 (centres unmarked)	in contrast
O=C1N=C(O)/C(=C/c2ccc(-c3ccc(C(=O)O)cc3)o2)S1 [4-{5-[(2,4-disulfo-1,3-thiazolidin-5-ylidene)methyl]-2-furyl}benzoic acid]	colors the locks of hair
